Structures can show the parent of a compound that is named as a salt. This is one part of the list. Single values are uncertain, as repeats are few or missing.

The source of these data is the supplement of paper PMC11637464.

This assay deals with primary mouse Muller glia with Ascl1 overexpression. In words: progenitor-like (ProL) cell count fold change vs Ascl1-only control (log2 fold change); higher = more progenitor-like cells. The following applies: 0.1 µM.
`O=S(=O)(NCCNC/C=C/c1ccc(Br)cc1)c1cccc2cnccc12` [H 89 dihydrochloride] (collection day: 1): the “progenitor-like (log2)” value was 0.126.

Take `CCCCC(CC)CNC(=N)NC(=N)NCCCCCCNC(=N)NC(=N)NCC(CC)CCCC` (stereo not given) [Alexidine dihydrochloride] (collection day: 2): the “progenitor-like (log2)” value was -2.17.

As for `CCN(CC)S(=O)(=O)Nc1cccc(-c2ccc3c(NC(=O)C4CC4)n[nH]c3c2)c1` (collection day: 2), the “progenitor-like (log2)” value was 0.181.

`O=C1NC(=O)c2c1c(-c1ccccc1)cc1[nH]c3ccc(O)cc3c21` (collection day: 1): the “progenitor-like (log2)” value came to 0.184.

For `Cc1c(C)c2c(c(C)c1O)CCC(C)(COc1ccc(CC3SC(=O)NC3=O)cc1)O2` (stereo not given) [Troglitazone] (collection day: 1), the “progenitor-like (log2)” value turned out to be 0.

`C[C@@H](N)[C@H]1CC[C@H](C(=O)Nc2ccncc2)CC1` (collection day: 1): the “progenitor-like (log2)” value stood at 0.447.

For `CNC1CCC(N(Cc2cc(-c3ccncc3)ccc2OC)C(=O)c2sc3c(F)ccc(F)c3c2Cl)CC1` (stereo not given) (collection day: 2), the “progenitor-like (log2)” value worked out at 0.0317.

On to `c1ccc2c(-c3cnn4cc(-c5ccc(N6CCNCC6)cc5)cnc34)ccnc2c1` (collection day: 2), for which the “progenitor-like (log2)” value was -0.492.

Turning to `CCCCCC[C@@H]([C@@H](C)O)n1cnc2c(N)ncnc21` [EHNA hydrochloride] (collection day: 1), the “progenitor-like (log2)” value came out at 0.628.

As for `CNCCC(Oc1ccc(C(F)(F)F)cc1)c1ccccc1` (stereo not given) [Fluoxetine hydrochloride] (collection day: 1), the “progenitor-like (log2)” value stood at 0.67.
